Experimental data: the supplement of paper PMC10849652
The other results are listed elsewhere or left out.

Sequences of proteins named here, by UniProt entry; tags and fusion partners are left off. A change or cut given only in a name is not applied to a line headed by its entry.
UniProt P0DPH7, whole entry, looked up: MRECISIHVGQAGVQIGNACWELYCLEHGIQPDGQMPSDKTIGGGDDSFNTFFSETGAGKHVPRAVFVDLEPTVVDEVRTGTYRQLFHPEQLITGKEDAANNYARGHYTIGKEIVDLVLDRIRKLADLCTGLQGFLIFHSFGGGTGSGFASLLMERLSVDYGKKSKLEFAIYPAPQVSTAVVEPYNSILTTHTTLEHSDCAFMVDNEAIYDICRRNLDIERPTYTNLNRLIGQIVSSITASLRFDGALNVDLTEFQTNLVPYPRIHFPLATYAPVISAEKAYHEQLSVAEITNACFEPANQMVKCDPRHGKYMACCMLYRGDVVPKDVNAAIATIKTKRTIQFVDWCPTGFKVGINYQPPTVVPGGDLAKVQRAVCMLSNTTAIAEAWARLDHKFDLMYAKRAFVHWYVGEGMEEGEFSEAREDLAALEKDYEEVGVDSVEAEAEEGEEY
UniProt Q16763: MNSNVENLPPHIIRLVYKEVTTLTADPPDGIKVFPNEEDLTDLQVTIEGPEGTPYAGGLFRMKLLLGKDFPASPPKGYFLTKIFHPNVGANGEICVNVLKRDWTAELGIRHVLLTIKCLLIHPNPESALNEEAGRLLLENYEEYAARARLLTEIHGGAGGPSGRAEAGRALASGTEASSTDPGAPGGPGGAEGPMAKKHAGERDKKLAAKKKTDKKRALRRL
UniProt O95881: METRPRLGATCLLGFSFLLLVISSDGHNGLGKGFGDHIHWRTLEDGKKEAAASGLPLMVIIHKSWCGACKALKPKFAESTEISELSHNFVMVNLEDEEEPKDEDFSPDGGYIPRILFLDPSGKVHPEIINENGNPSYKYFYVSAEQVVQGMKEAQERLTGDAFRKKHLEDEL
UniProt Q9BUF5, whole entry, looked up: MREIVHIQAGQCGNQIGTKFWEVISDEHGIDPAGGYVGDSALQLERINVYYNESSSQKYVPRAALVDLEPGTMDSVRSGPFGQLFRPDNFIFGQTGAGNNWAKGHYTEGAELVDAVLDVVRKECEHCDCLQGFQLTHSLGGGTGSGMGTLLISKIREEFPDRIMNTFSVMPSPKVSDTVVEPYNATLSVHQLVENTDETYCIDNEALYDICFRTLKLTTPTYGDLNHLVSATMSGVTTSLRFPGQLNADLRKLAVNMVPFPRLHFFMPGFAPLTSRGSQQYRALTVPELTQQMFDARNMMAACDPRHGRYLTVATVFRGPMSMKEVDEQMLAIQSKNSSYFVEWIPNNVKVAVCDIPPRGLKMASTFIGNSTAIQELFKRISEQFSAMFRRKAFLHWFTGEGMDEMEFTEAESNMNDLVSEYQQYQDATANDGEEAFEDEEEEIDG
UniProt Q7Z6J8: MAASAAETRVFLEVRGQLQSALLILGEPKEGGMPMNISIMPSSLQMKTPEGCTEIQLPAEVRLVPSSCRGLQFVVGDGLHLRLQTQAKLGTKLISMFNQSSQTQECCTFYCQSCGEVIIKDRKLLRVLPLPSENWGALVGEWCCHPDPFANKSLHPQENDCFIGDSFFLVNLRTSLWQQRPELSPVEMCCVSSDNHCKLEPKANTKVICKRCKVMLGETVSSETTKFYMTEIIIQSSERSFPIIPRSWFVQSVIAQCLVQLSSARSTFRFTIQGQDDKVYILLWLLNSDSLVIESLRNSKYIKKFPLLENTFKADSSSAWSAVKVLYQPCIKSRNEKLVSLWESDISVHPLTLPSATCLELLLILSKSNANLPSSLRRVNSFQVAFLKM
UniProt Q5JXB2: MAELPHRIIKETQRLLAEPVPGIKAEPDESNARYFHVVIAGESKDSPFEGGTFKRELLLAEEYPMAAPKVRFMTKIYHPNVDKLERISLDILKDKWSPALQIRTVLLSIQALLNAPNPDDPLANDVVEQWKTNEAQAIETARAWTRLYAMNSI
UniProt Q6IPR3: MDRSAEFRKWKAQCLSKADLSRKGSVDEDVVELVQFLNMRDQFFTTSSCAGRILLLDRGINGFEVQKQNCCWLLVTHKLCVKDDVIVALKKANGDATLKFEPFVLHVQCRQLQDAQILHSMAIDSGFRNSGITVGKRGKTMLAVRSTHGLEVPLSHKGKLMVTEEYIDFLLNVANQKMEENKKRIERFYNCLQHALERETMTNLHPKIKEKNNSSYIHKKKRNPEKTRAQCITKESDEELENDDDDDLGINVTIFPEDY
UniProt Q9NV66: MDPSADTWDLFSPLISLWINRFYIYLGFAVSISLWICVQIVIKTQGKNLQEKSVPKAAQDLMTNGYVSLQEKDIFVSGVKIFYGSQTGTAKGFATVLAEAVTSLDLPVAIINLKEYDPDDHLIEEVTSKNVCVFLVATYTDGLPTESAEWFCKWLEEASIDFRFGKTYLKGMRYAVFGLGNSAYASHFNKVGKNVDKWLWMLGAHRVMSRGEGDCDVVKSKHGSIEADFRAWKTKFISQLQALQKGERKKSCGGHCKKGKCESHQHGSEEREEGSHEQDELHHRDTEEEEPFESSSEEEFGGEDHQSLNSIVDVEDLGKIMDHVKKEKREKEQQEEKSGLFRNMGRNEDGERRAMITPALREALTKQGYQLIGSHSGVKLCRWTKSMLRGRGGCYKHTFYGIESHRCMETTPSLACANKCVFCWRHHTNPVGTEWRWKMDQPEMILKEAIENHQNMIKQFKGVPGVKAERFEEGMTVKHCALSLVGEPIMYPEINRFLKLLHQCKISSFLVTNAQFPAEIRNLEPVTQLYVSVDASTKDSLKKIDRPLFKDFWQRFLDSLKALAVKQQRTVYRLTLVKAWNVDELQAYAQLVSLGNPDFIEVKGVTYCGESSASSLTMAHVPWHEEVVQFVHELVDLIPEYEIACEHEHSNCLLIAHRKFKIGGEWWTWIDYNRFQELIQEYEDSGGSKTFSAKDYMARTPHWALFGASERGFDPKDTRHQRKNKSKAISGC
UniProt P26368, whole entry, looked up: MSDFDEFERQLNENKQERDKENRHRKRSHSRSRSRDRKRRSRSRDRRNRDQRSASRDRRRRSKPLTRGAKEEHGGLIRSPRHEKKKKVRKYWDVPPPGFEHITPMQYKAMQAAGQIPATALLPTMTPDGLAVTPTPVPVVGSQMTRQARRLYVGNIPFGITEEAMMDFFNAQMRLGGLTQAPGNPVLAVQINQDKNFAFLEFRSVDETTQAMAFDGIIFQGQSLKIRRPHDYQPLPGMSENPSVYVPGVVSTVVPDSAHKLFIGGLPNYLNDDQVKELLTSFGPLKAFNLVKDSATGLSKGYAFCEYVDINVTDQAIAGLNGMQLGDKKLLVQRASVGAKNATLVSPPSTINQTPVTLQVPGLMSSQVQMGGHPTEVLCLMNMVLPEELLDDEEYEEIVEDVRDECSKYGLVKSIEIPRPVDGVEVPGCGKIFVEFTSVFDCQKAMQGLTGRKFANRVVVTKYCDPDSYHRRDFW
UniProt Q9GZZ9, whole entry, looked up: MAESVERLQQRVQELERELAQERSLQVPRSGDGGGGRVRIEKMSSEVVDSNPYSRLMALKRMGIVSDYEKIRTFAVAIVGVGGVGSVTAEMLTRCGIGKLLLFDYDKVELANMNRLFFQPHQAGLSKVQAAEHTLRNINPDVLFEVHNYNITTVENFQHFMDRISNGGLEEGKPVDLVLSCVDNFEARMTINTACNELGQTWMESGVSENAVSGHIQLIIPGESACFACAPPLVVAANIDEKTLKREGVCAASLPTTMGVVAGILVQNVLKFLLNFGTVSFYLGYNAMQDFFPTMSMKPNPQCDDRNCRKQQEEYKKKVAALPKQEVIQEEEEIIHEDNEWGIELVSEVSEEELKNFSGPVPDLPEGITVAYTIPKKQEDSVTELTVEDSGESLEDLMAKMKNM
UniProt Q5VYS8: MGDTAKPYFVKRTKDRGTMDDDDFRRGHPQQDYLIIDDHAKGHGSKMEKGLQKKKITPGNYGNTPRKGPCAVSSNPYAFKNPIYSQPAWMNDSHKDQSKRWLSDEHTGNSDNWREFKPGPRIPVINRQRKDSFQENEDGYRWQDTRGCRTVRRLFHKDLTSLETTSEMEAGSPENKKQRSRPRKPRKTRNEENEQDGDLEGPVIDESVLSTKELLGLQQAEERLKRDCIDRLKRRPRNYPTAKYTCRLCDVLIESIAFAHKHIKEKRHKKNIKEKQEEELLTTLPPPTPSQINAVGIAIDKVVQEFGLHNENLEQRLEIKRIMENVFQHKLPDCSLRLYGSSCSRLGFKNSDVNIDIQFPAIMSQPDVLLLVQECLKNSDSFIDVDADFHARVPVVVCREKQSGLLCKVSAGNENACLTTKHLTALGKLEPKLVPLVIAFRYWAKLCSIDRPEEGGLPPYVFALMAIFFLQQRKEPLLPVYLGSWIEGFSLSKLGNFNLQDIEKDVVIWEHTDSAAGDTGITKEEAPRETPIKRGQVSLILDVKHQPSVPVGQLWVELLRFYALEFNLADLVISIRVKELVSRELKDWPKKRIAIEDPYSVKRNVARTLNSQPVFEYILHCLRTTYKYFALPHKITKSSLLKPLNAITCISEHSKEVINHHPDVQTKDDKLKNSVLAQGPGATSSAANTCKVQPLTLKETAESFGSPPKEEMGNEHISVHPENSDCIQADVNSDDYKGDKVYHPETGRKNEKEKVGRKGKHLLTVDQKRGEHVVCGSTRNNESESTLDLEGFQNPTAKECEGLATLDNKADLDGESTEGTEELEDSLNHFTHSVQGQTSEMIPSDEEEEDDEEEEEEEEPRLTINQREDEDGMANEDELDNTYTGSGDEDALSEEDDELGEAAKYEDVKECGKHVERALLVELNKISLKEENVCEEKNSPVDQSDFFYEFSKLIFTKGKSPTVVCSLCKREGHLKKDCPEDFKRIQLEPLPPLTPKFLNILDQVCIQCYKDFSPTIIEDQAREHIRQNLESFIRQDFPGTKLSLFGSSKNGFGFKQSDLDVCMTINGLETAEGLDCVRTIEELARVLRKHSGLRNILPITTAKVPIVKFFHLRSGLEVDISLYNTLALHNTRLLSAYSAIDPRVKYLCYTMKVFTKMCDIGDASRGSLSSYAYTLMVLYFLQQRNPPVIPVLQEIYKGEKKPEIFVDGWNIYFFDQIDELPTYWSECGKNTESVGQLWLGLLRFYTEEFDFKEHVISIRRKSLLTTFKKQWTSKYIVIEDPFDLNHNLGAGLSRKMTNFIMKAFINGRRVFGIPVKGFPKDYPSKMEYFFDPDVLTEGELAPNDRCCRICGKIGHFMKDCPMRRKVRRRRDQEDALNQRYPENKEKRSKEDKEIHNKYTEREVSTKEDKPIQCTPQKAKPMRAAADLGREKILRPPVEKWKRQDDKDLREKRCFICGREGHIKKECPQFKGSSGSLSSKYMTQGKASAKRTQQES
UniProt Q8WVY7: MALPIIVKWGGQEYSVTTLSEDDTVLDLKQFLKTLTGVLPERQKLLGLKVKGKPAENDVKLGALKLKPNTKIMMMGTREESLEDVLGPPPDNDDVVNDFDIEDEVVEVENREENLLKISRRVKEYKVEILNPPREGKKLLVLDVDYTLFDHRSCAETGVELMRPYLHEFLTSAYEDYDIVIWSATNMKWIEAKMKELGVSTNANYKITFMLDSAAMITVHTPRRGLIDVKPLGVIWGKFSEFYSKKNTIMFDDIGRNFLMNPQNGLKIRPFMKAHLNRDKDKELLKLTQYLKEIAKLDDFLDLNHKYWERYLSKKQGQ
UniProt Q9NRR5, whole entry, looked up: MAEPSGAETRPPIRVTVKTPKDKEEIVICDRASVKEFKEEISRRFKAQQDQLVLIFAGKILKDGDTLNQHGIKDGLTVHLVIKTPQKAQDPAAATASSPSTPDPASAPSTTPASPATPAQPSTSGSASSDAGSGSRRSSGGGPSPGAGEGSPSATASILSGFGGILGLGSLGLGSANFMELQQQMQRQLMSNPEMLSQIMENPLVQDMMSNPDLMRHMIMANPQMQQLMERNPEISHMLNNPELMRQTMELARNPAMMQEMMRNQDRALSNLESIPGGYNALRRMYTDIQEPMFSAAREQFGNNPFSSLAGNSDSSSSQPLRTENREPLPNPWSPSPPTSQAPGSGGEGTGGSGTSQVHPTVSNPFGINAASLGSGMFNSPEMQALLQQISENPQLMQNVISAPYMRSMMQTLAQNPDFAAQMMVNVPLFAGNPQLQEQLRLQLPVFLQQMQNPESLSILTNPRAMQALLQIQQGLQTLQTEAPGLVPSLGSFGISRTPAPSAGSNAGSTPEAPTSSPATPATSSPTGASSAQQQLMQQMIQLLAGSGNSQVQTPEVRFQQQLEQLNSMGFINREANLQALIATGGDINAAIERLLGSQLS
UniProt Q9H832: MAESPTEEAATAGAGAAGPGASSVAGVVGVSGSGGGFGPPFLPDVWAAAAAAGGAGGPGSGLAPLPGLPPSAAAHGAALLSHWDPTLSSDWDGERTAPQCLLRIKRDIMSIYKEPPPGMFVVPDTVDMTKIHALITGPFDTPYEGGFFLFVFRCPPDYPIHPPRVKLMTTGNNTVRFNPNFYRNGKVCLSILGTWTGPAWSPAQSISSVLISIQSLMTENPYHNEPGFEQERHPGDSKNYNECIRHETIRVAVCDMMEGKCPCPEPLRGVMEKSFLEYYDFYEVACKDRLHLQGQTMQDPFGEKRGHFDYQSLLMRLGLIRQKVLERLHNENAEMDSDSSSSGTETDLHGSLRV

Columns and labels:
Assay in all cases: log2 fold change, soluble protein after heating vs DMSO (PISA); higher = thermal stabilisation; K562 lysate, 10 uM; active = over 0.2 and 3.5 SD of the protein, either way, in both replicates (recomputed)
ibrutinib = compound: C=CC(=O)N1CCC[C@@H](n2nc(-c3ccc(Oc4ccccc4)cc3)c3c(N)ncnc32)C1 [ibrutinib]
Procedure, shortened: (§1)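 K562 pellets were dounce-homogenised in PBS pH 7.4 with 1 mM MgCl2, and the crude extract at 1 mg/mL protein was treated with 10 μM compound for 30 min. Aliquots were heated for 3 min across 48°C-58°C, pooled, and brought to 0.5% NP-40 at 4°C; soluble protein was the supernatant after 21,000xg for 90 min. Soluble protein was quantified by TMTpro 16plex LC-MS/MS with channel sums equalised, and reported as log2 fold change in thermal stability against DMSO controls, with values from duplicates.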

[1] = compound: CC(=O)c1cnc2ccc(-c3cc(Cl)c(O)c(Cl)c3)nc2c1N[C@H]1CC[C@H](CN(C)C)CC1
Procedure, shortened: as §1

ralimetinib = compound: CC(C)(C)Cn1c(N)nc2ccc(-c3[nH]c(C(C)(C)C)nc3-c3ccc(F)cc3)nc21 [ralimetinib]
Procedure, shortened: as §1

[2] = compound: CC(C)(O)CC(=O)NCCn1ccc2ncnc(Nc3ccc(Oc4cccc(C(F)(F)F)c4)c(Cl)c3)c21
Procedure, shortened: as §1

[3] = compound: CC(C)C1=C2N=C(C=C(N2N=C1)NCC3=CC=CC=C3)NCCCCCCN
Procedure, shortened: as §1

[4] = compound: CC1=C(C(CC(=O)N1)C2=CC=C(C=C2)C(F)(F)F)C(=O)NC3=C(C=C4C(=C3)C=NN4)F
Procedure, shortened: as §1

[5] = compound: CC1=C(C2=C(C=C1)C(=O)C3=CC=CC=C3N2CCCN)C
Procedure, shortened: as §1

[6] = compound: CC1=C(C=C(C=C1)NC(=O)C2=CC(=CC=C2)C(C)(C)C#N)NC3=CC4=C(C=C3)N=CN(C4=O)C
Procedure, shortened: as §1

[7] = compound: CC1=C(C=C(C=C1)NC(=O)C2=CC(=CC=C2)N(C)C)NC(=O)C3=CC=C(C=C3)O
Procedure, shortened: as §1

[8] = compound: CC1=CC=C(C=C1)SC2=C3C=C(SC3=CN=C2)C(=O)N
Procedure, shortened: as §1

vemurafenib = compound: CCCS(=O)(=O)Nc1ccc(F)c(C(=O)c2c[nH]c3ncc(-c4ccc(Cl)cc4)cc23)c1F [vemurafenib]
Procedure, shortened: as §1

[9] = compound: CCCS(=O)(=O)Nc1ccc(F)c(C(=O)c2c[nH]c3ncc(Cl)cc23)c1F
Procedure, shortened: as §1

barasertib = compound: CCN(CCCOc1ccc2c(Nc3cc(CC(=O)Nc4cccc(F)c4)[nH]n3)ncnc2c1)CCOP(=O)(O)O [barasertib]
Procedure, shortened: as §1

[10] = compound: CC[C@@H]1C(=O)N(C)c2cnc(Nc3ccc(C(=O)NC4CCN(C)CC4)cc3OC)nc2N1C1CCCC1
Procedure, shortened: as §1

volasertib = compound: CC[C@@H]1C(=O)N(C)c2cnc(Nc3ccc(C(=O)N[C@H]4CC[C@H](N5CCN(CC6CC6)CC5)CC4)cc3OC)nc2N1C(C)C [volasertib]
Procedure, shortened: as §1

[11] = compound: CCn1c(C(=O)N(C2CC2)C2CC2)cc2c3c(ncn3C)c(Nc3cc(C)n(C)n3)nc21
Procedure, shortened: as §1

[12] = compound: CCn1cc(-c2ccnc3[nH]c(-c4cccc(CN(C)C)c4)cc23)c(-c2ccc(NC(=O)N(C)C)cc2)n1
Procedure, shortened: as §1

[13] = compound: CN1CCC(CNc2ccc3ncc(-c4cccc(OC(F)(F)F)c4)n3n2)CC1
Procedure, shortened: as §1

saracatinib = compound: CN1CCN(CCOc2cc(OC3CCOCC3)c3c(Nc4c(Cl)ccc5c4OCO5)ncnc3c2)CC1 [saracatinib]
Procedure, shortened: as §1

sotrastaurin = compound: CN1CCN(c2nc(C3=C(c4c[nH]c5ccccc45)C(=O)NC3=O)c3ccccc3n2)CC1 [sotrastaurin]
Procedure, shortened: as §1

Measured: log2 fold change

TUBA3C (UniProt P0DPH7)
inactive: ibrutinib -0.009 | [1] -0.007 | ralimetinib 0.041 | [2] -0.045 | [3] -0.047 | [4] 0.002 | [5] 0.029 | [6] -0.021 | [7] 0.038 | [8] 0.001 | vemurafenib 0.037 | [9] 0.021 | barasertib -0.011 | [10] -0.041 | volasertib -0.026 | [11] 0.012 | [12] -0.062 | [13] -0.013 | saracatinib 0.013 | sotrastaurin 0.048

UBE2S (UniProt Q16763)
inactive: ibrutinib -0.002 | [1] 0.017 | ralimetinib 0.028 | [2] -0.023 | [3] 0.025 | [4] -0.002 | [5] -0.022 | [6] 0.019 | [7] -0.014 | [8] -0.022 | vemurafenib 0.016 | [9] 0.019 | barasertib 0.029 | [10] 0.014 | volasertib -0.019 | [11] -0.005 | [12] -0.059 | [13] 0.032 | saracatinib 0.024 | sotrastaurin 0.012

TXNDC12 (UniProt O95881)
inactive: ibrutinib 0.041 | [1] 0.043 | ralimetinib 0.024 | [2] 0.021 | [3] -0.014 | [4] 0 | [5] 0.031 | [6] 0 | [7] -0.033 | [8] 0.036 | vemurafenib -0.048 | [9] -0.014 | barasertib 0.08 | [10] -0.08 | volasertib 0.012 | [11] 0.012 | [12] -0.022 | [13] 0.021 | saracatinib 0.046 | sotrastaurin -0.022

UBE3A (UniProt Q05086)
inactive: ibrutinib 0.017 | [1] -0.008 | ralimetinib 0.01 | [2] -0.031 | [3] -0.002 | [4] -0.014 | [5] -0.011 | [6] 0.011 | [7] 0.008 | [8] 0 | vemurafenib 0.038 | [9] 0.018 | barasertib 0.02 | [10] -0.004 | volasertib -0.017 | [11] -0.036 | [12] -0.088 | [13] 0.022 | saracatinib -0.003 | sotrastaurin -0.004

TUBB4B (UniProt P68371)
inactive: ibrutinib -0.012 | [1] 0.029 | ralimetinib 0.026 | [2] 0.029 | [3] 0.02 | [4] 0.011 | [5] 0.022 | [6] -0.05 | [7] 0.035 | [8] 0.018 | vemurafenib 0.006 | [9] 0.004 | barasertib -0.092 | [10] -0.032 | volasertib -0.034 | [11] 0.005 | [12] -0.134 | [13] -0.011 | saracatinib 0.03 | sotrastaurin -0.021

TUBB6 (UniProt Q9BUF5)
inactive: ibrutinib -0.005 | [1] 0.012 | ralimetinib 0.023 | [2] -0.038 | [3] 0.027 | [4] 0.012 | [5] 0.025 | [6] -0.024 | [7] -0.009 | [8] 0.025 | vemurafenib 0.007 | [9] 0.002 | barasertib -0.015 | [10] 0.003 | volasertib -0.068 | [11] -0.007 | [12] -0.019 | [13] 0.014 | saracatinib 0.032 | sotrastaurin -0.024

UBE3D (UniProt Q7Z6J8)
inactive: ibrutinib -0.03 | [1] -0.062 | ralimetinib -0.005 | [2] -0.057 | [3] -0.006 | [4] -0.035 | [5] 0.066 | [6] 0.02 | [7] -0.013 | [8] -0.008 | vemurafenib 0.089 | [9] -0.043 | barasertib 0.006 | [10] 0.057 | volasertib 0.035 | [11] -0.066 | [12] -0.043 | [13] 0.086 | saracatinib -0.054 | sotrastaurin 0.03

UBE2NL (UniProt Q5JXB2)
inactive: ibrutinib 0.063 | [1] -0.009 | ralimetinib -0.033 | [2] -0.002 | [3] 0.03 | [4] -0.03 | [5] -0.044 | [6] -0.021 | [7] -0.047 | [8] 0 | vemurafenib -0.016 | [9] -0.035 | barasertib 0.083 | [10] -0.025 | volasertib 0.031 | [11] 0 | [12] -0.006 | [13] -0.004 | saracatinib 0.074 | sotrastaurin -0.036

TYW3 (UniProt Q6IPR3)
inactive: ibrutinib -0.052 | [1] -0.054 | ralimetinib -0.016 | [2] -0.081 | [3] 0.043 | [4] -0.015 | [5] -0.021 | [6] 0.025 | [7] 0.01 | [8] -0.004 | vemurafenib 0.024 | [9] 0.017 | barasertib 0.017 | [10] 0.038 | volasertib -0.002 | [11] -0.02 | [12] -0.218 | [13] 0.031 | saracatinib -0.031 | sotrastaurin -0.003

TYW1 (UniProt Q9NV66)
inactive: ibrutinib 0.177 | [1] 0.069 | ralimetinib 0.045 | [2] 0.12 | [3] -0.025 | [4] -0.001 | [5] -0.087 | [6] -0.021 | [7] -0.121 | [8] -0.098 | vemurafenib -0.088 | [9] 0.122 | barasertib 0.118 | [10] 0.135 | volasertib -0.048 | [11] -0.129 | [12] -0.002 | [13] -0.063 | saracatinib 0.04 | sotrastaurin 0.034

U2AF2 (UniProt P26368)
inactive: ibrutinib 0.033 | [1] -0.019 | ralimetinib 0.002 | [2] -0.004 | [3] 0.032 | [4] -0.02 | [5] 0.016 | [6] 0.011 | [7] -0.002 | [8] -0.008 | vemurafenib 0.011 | [9] 0.01 | barasertib 0.002 | [10] -0.045 | volasertib -0.01 | [11] -0.039 | [12] 0.037 | [13] 0.041 | saracatinib -0.007 | sotrastaurin -0.008

Looked up one by one from the list above, two records:
UBE2NL (UniProt Q5JXB2)
inactive: ibrutinib 0.063 | [1] -0.009 | ralimetinib -0.033 | [2] -0.002 | [3] 0.03 | [4] -0.03 | [5] -0.044 | [6] -0.021 | [7] -0.047 | [8] 0 | vemurafenib -0.016 | [9] -0.035 | barasertib 0.083 | [10] -0.025 | volasertib 0.031 | [11] 0 | [12] -0.006 | [13] -0.004 | saracatinib 0.074 | sotrastaurin -0.036

TYW1 (UniProt Q9NV66)
inactive: ibrutinib 0.177 | [1] 0.069 | ralimetinib 0.045 | [2] 0.12 | [3] -0.025 | [4] -0.001 | [5] -0.087 | [6] -0.021 | [7] -0.121 | [8] -0.098 | vemurafenib -0.088 | [9] 0.122 | barasertib 0.118 | [10] 0.135 | volasertib -0.048 | [11] -0.129 | [12] -0.002 | [13] -0.063 | saracatinib 0.04 | sotrastaurin 0.034

The results go on:

UBA5 (UniProt Q9GZZ9)
inactive: ibrutinib -0.004 | [1] -0.023 | ralimetinib 0.085 | [2] -0.007 | [3] -0.003 | [4] -0.002 | [5] -0.028 | [6] -0.014 | [7] 0.047 | [8] 0.013 | vemurafenib -0.058 | [9] 0.007 | barasertib 0.006 | [10] -0.026 | volasertib -0.018 | [11] -0.01 | [12] 0.03 | [13] 0.048 | saracatinib 0.001 | sotrastaurin -0.005

TUT7 (UniProt Q5VYS8)
inactive: ibrutinib 0.009 | [1] 0.025 | ralimetinib -0.054 | [2] -0.047 | [3] -0.013 | [4] -0.018 | [5] -0.279 | [6] 0.021 | [7] -0.066 | [8] -0.097 | vemurafenib 0.037 | [9] -0.022 | barasertib -0.03 | [10] 0.03 | volasertib 0 | [11] -0.018 | [12] 0.03 | [13] -0.1 | saracatinib 0.171 | sotrastaurin -0.145

UBLCP1 (UniProt Q8WVY7)
inactive: ibrutinib -0.043 | [1] 0.015 | ralimetinib -0.009 | [2] 0.047 | [3] -0.034 | [4] 0.01 | [5] 0.025 | [6] -0.003 | [7] 0.007 | [8] 0.028 | vemurafenib -0.188 | [9] -0.021 | barasertib -0.032 | [10] -0.025 | volasertib -0.045 | [11] 0.051 | [12] 0.13 | [13] -0.063 | saracatinib -0.026 | sotrastaurin 0.006

UBQLN4 (UniProt Q9NRR5)
inactive: ibrutinib 0.175 | [1] 0.006 | ralimetinib 0.019 | [2] -0.036 | [3] 0.012 | [4] -0.014 | [5] -0.023 | [6] 0.024 | [7] 0.017 | [8] -0.01 | vemurafenib -0.014 | [9] 0.023 | barasertib 0.22 | [10] 0.017 | volasertib 0.018 | [11] -0.059 | [12] 0.036 | [13] -0.048 | saracatinib 0.026 | sotrastaurin 0.012

UBE2Z (UniProt Q9H832)
inactive: ibrutinib -0.006 | [1] -0.016 | ralimetinib 0.008 | [2] 0.002 | [3] -0.014 | [4] 0.014 | [5] 0.046 | [6] 0.03 | [7] -0.018 | [8] 0.005 | vemurafenib -0.009 | [9] 0.011 | barasertib 0.022 | [10] 0.057 | volasertib -0.011 | [11] 0.038 | [12] -0.104 | [13] 0.037 | saracatinib -0.017 | sotrastaurin -0.067
